The values below come from article PMC12623996.

Sequences of proteins named here, by UniProt entry; tags and fusion partners are left off. Residues count along the entry.
UniProt P02545, residues 1-646: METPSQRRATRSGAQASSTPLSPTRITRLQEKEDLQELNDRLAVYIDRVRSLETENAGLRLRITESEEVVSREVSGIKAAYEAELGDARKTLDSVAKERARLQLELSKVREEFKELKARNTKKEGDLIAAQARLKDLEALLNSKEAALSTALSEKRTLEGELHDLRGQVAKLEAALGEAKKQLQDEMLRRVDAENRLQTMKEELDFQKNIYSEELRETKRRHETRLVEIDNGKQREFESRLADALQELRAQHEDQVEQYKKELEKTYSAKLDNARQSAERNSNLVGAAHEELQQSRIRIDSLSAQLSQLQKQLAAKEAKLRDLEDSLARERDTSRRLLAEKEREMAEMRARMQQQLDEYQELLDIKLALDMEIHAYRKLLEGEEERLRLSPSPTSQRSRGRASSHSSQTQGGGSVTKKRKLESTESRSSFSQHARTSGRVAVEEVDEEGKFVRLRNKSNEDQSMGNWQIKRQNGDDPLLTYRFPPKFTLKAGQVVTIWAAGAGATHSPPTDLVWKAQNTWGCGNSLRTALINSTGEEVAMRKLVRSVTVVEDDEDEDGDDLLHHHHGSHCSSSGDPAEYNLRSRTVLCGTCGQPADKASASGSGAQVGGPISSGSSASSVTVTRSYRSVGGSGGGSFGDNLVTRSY

Results are given in words; binding and its absence hold for the method and conditions named. Binding seen in cells or lysates may run through a third protein. A yes stands for co-enrichment or nearness to the bait. Other partners may have been found.

The experiment addresses T1, Succinate-coenzyme A (CoA) ligase GDP-forming subunit beta (SUCLG2) (human (endogenous in LN229)) (UniProt Q96I99).
T1 sequence: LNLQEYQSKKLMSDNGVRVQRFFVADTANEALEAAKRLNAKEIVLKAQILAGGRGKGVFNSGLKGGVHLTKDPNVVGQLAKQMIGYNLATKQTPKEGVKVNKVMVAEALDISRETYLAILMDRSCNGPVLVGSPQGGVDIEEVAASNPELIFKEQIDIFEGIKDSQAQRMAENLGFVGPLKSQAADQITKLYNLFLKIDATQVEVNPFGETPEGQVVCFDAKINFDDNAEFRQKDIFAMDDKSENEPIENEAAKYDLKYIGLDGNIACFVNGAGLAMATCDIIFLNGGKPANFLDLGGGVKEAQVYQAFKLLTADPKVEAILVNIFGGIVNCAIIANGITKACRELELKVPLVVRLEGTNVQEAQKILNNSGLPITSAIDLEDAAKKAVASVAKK
The experiment can be described thus: affinity purification with mass spectrometry; immunoprecipitation of SUCLG2 from LN229 cells, partners identified by mass spectrometry; control IP-MS alongside.

For “lamin A (LMNA) (from UniProt P02545 1-646)”, the binding result was “binds”.
